Measured values reported in PMC8443252.

Protein sequences, listed by entry. Tags and fused reporters are not part of them.
UniProt Q7JV23: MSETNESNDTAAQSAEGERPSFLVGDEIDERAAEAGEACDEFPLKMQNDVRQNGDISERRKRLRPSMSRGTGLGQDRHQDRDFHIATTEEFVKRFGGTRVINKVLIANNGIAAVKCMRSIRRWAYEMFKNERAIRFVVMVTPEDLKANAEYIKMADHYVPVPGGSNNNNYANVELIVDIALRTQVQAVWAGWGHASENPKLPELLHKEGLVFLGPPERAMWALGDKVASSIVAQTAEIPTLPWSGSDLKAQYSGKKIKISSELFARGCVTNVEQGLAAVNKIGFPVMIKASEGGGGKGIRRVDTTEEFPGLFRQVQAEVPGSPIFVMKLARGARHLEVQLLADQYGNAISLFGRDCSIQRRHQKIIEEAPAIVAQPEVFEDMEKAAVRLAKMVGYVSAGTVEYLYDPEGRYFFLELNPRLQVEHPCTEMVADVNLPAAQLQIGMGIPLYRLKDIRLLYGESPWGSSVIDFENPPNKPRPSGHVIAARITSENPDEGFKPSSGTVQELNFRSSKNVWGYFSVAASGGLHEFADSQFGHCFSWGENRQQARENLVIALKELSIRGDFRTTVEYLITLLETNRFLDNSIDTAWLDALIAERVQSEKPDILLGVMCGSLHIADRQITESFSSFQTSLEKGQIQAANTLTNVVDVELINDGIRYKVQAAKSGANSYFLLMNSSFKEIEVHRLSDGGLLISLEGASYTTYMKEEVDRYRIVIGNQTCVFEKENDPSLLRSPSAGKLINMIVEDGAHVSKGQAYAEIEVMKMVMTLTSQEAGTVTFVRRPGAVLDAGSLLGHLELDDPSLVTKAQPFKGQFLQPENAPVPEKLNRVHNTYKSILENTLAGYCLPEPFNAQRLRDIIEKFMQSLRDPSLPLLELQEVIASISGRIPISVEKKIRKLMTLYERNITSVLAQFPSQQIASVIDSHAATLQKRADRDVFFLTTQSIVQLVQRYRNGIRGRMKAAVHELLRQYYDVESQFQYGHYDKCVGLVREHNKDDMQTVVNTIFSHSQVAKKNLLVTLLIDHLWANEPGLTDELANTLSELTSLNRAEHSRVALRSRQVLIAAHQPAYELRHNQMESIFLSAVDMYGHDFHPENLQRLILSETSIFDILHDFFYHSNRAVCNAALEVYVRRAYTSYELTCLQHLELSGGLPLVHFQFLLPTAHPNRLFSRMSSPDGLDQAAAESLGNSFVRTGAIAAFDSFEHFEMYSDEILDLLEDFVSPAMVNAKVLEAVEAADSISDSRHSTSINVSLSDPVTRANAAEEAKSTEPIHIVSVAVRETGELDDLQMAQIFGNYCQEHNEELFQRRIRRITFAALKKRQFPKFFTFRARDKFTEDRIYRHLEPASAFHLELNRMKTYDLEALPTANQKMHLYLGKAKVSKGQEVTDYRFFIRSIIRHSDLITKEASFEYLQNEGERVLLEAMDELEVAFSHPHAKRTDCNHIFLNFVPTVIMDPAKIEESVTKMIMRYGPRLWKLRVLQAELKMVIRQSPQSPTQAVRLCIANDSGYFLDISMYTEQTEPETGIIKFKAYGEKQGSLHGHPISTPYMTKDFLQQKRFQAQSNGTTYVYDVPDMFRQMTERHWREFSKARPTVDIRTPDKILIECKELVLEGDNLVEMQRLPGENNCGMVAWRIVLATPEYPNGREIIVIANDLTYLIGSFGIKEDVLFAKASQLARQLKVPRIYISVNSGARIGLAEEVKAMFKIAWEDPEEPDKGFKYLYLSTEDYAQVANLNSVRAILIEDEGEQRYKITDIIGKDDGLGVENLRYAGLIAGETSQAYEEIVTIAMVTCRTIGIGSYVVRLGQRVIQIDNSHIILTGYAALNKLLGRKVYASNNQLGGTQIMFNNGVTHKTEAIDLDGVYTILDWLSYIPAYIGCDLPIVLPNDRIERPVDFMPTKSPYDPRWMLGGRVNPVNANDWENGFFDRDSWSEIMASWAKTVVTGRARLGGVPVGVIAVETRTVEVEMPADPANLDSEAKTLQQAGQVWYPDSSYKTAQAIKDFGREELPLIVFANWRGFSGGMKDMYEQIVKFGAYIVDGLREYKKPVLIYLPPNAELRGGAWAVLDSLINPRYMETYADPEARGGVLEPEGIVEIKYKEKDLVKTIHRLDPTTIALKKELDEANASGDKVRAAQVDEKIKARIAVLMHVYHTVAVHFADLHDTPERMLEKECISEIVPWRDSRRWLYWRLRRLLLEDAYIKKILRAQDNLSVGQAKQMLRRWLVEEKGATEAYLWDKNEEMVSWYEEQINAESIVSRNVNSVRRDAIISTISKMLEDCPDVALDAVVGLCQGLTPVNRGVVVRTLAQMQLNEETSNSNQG
UniProt Q9VQL6: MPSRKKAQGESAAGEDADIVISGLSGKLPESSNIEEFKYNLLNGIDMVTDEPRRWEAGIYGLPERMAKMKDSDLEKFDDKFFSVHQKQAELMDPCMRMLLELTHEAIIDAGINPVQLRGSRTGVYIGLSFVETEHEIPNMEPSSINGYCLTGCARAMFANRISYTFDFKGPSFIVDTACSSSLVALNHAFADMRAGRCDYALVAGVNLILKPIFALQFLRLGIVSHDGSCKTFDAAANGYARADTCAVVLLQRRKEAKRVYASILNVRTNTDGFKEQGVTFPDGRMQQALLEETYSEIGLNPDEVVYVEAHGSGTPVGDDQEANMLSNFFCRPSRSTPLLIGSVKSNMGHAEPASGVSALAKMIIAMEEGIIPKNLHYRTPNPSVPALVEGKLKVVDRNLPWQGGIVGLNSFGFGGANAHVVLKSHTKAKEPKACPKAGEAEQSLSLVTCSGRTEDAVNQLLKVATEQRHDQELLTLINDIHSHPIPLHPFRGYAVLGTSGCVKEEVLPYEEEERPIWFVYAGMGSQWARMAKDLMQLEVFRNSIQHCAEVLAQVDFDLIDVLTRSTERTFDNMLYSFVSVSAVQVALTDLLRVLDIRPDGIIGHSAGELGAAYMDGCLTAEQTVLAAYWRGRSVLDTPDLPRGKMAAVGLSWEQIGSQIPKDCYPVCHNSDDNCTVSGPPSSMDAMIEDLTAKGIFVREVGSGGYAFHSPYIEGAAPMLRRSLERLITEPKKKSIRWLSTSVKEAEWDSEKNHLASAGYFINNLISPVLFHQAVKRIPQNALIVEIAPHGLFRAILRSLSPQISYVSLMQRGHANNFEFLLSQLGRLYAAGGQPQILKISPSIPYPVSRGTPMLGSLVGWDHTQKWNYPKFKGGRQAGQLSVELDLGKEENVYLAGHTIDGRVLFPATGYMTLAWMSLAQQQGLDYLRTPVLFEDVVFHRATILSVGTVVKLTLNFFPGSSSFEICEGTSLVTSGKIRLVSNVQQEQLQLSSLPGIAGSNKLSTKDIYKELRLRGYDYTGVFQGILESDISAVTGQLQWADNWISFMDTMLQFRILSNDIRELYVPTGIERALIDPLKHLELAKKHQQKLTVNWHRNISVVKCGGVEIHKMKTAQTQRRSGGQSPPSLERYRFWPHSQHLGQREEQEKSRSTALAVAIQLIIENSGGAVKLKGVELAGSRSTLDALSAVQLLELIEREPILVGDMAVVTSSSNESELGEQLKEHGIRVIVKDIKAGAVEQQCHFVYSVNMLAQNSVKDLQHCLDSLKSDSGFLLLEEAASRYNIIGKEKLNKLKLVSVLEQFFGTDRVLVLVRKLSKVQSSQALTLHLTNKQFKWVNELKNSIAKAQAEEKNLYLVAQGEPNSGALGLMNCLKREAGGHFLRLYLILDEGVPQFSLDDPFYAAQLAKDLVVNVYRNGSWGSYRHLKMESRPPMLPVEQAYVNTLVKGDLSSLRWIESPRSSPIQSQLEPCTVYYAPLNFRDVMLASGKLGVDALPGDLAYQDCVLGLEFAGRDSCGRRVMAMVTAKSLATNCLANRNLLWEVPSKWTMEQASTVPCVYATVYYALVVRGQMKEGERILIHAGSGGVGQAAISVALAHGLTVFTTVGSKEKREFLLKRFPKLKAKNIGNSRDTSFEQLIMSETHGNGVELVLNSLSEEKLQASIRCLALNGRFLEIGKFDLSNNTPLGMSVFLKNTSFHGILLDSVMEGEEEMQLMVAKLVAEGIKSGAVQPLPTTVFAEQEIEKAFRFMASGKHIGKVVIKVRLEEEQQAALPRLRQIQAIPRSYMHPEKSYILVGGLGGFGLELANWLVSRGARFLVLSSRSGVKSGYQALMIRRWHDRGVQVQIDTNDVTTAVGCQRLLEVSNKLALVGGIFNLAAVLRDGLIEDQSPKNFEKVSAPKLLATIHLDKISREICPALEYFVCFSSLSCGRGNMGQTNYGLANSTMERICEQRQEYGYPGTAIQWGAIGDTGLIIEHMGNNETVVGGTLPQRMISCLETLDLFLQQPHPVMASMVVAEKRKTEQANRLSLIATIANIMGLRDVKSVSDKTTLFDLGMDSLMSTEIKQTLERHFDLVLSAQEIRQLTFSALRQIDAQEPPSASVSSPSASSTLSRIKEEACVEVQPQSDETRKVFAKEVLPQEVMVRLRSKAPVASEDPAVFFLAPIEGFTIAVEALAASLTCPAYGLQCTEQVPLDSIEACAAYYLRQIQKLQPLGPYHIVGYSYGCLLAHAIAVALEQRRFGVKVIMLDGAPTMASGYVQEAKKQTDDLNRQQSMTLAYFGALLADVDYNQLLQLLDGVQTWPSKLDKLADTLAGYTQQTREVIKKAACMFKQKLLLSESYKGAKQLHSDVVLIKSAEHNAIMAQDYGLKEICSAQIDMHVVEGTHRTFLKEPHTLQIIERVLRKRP

Each substance was assayed against T1, GFP-tagged Drosophila STING (D. melanogaster) (assay: affinity purification with mass spectrometry; anti-GFP (DSHB 4C9) immunoprecipitation from fat bodies of third-instar larvae overexpressing GFP-dSTING (tub-GAL4); IP buffer 25 mM HEPES pH 7.6, 0.1 mM EDTA, 12 mM MgCl2, 100 mM NaCl, 1% NP-40; gel bands of ~250 kDa and ~30 kDa excised; control w1118 lysate with recombinant GFP added).
T1 sequence: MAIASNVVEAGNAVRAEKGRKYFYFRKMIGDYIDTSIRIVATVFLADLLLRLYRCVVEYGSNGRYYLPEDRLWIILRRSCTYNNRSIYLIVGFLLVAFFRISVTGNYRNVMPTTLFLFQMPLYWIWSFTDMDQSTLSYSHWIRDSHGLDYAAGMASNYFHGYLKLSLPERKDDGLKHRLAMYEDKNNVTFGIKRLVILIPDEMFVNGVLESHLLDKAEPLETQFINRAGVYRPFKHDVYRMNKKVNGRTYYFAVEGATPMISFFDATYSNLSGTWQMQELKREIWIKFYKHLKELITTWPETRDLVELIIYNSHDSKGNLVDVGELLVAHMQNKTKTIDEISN

binding | Substance
binds | fatty acid synthase 1 (from UniProt Q9VQL7 1-2438) (enzyme)
binds | acetyl-CoA carboxylase (from UniProt Q7JV23 1-2323) (enzyme)
binds | fatty acid synthase 2 (from UniProt Q9VQL6 1-2409) (enzyme)

No constants are given. Whether binding was seen depends on the method and setting. Binding seen in cells or lysates may run through a third protein. A yes stands for co-enrichment or nearness to the bait. Other partners may have been found. Where a sequence is shown, tags or fusion partners need not be part of it.
